# Test results: article PMC7819943, “Rice protein-binding microarrays: a tool to detect cis-acting elements near promoter regions in rice”
# Chains of the proteins cited; added tags and fusions are not shown.
# UniProt Q0JBA9, entry or part of it: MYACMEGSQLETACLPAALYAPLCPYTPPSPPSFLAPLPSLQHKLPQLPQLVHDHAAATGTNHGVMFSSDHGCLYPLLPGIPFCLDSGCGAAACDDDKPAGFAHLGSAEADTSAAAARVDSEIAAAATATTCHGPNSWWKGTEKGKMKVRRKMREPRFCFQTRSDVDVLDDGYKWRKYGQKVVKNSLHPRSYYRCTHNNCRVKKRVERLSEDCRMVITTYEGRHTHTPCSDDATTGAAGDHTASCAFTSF
# This is one part of the list.
# Biological target: OsWRKY34 (Oryza sativa, UniProt Q0JBA9 1-250)
# Assay: protein-binding microarray (RPBM); PBS, 2% BSA, 51.3 ng/ul salmon testes DNA, 50 uM zinc acetate, 200 nM TF, 25 C, 1 h; high values mean tight binding
# Details: protein: recombinant; tags: N-terminal polyhistidine and DsRed monomer fusion (pET32a); label: CyDye5-dUTP incorporated in the synthesized complementary strand; 3' TTTTT single-stranded linker to array surface; dsDNA, one strand shown
# How it was run: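 A custom Agilent array was converted to double-stranded form by primer extension with Cy5-dUTP and blocked with 2% BSA. Protein at 200 nM in PBS with 2% BSA, salmon testes DNA and 50 µM zinc acetate was applied for 1 h at 25 °C, followed by washing. The proteins were polyhistidine–DsRed N-terminal fusions of transcription factors, expressed in E. coli BL21-CodonPlus and Ni–NTA-purified. The binding signal is per-feature fluorescence intensity (arbitrary units) from an Axon 4000B scanner.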
row,Sequence,binding signal
1,CTCTGTTCGTTTATTCCCACAGTGGCTACCAGTAGGTAAACGGAGTCACCTAGTGCAG,8130 fluorescence intensity (a.u.)
2,GTCCGCATCCAATTCCCGGGCCATTCGAAATCCCCAACACCGGAGTCACCTAGTGCAG,10200 fluorescence intensity (a.u.)
3,CCACCTCGCTTACCGACGCATCGCGGCGCCGCTTCAAAACCGGAGTCACCTAGTGCAG,8520 fluorescence intensity (a.u.)
4,GTTTGTCTCGAATACTCTCCTCTCTCAAACACTTCCGTATCGGAGTCACCTAGTGCAG,8330 fluorescence intensity (a.u.)
5,CATCAGCCTGAGGTTTCCACGAAGTACCATCCCATCTATACGGAGTCACCTAGTGCAG,8690 fluorescence intensity (a.u.)
6,CCTCGCTCTCCATGGTGGTGGTGGTGGTCAGGTGGTGGGGCGGAGTCACCTAGTGCAG,18800 fluorescence intensity (a.u.)
7,ACTCCACTCGCTCCCTCCCATCAGCGTTTCGCTCTCGTTTCGGAGTCACCTAGTGCAG,8580 fluorescence intensity (a.u.)
8,TTCACCTCGATCTCCTCCGGGCAAACCGCGACATTTGAAACGGAGTCACCTAGTGCAG,9140 fluorescence intensity (a.u.)
9,CTCTGTCTCTCTTCTTCTCTCTACTTCGATAGCCAAAGCTCGGAGTCACCTAGTGCAG,8490 fluorescence intensity (a.u.)
10,ACCACTCACCTCATGATTTTCGTTGTATTCGTTCCAGTCCCGGAGTCACCTAGTGCAG,20000 fluorescence intensity (a.u.)
11,TTCTGTTTTTTTATTTTTCCAAAGTAATTGCAATACCTACCGGAGTCACCTAGTGCAG,9740 fluorescence intensity (a.u.)
12,CCATCTCACTGACTAGCTCGAGCTCACCATGGAATTCTCCCGGAGTCACCTAGTGCAG,8570 fluorescence intensity (a.u.)
13,GTTCAGGTCGTCTGCATTGTTCACTGGTACTGTCCATATACGGAGTCACCTAGTGCAG,10100 fluorescence intensity (a.u.)
14,ATTAGGTCGCGTATAGGGATGGTAGTTTTGCTAGTTTGTCCGGAGTCACCTAGTGCAG,9610 fluorescence intensity (a.u.)
15,GCAGTAATTAGCTTGTGCACCTTACCTTCTGATGCAGCTCCGGAGTCACCTAGTGCAG,10100 fluorescence intensity (a.u.)
16,TATGTATGGGTCTTTTTATGGGTCTTACGGATAGTAACTTCGGAGTCACCTAGTGCAG,8450 fluorescence intensity (a.u.)
17,GAACTAGTCCGCCTAATTGTTGGCTCTCTTATCTCTTCATCGGAGTCACCTAGTGCAG,12100 fluorescence intensity (a.u.)
18,CAAACCCCACCGCGACCGCGACTCCGACGTCTCCGCCACGCGGAGTCACCTAGTGCAG,8050 fluorescence intensity (a.u.)
19,CAGTACTTCTCTCCGTCCGTTCTCCTCCCTACTTCTCTCTCGGAGTCACCTAGTGCAG,8210 fluorescence intensity (a.u.)
20,GGGATCTGTTTTCCTACTCACGTGTATTAACTAAACACTCCGGAGTCACCTAGTGCAG,14900 fluorescence intensity (a.u.)
21,AGGCGGGGATTTGCTAGGGTTTTTCCGAAGGGATGGAGGACGGAGTCACCTAGTGCAG,8710 fluorescence intensity (a.u.)

row,Sequence,binding signal
1,CTAACCCCTGTCGTATTAGCATCATATCGTCGTCGTATGTCGGAGTCACCTAGTGCAG,9850 fluorescence intensity (a.u.)
2,AAGCACCTGCGAGGCTTACCGTTCTTGCTCGCCCGCCGCCCGGAGTCACCTAGTGCAG,9180 fluorescence intensity (a.u.)
3,AACCATATTTTCATTTAAATTACTTAGTTTTGACATTAATCGGAGTCACCTAGTGCAG,8800 fluorescence intensity (a.u.)
4,CACCTGATTGCCATTGTCCGTGAATTACGCTTTTACGGTTCGGAGTCACCTAGTGCAG,10900 fluorescence intensity (a.u.)
5,CCATCCACCGCGATTTTCACCCGCGCTCTCGCCACCACGCCGGAGTCACCTAGTGCAG,9390 fluorescence intensity (a.u.)
6,GGTGGCGGCAGGTGGTGGGATGGAGTAGCGCACGGGGATGCGGAGTCACCTAGTGCAG,13000 fluorescence intensity (a.u.)
7,CGTGGTGAAGTGGTGGGGAGTTGCGGGAGGGAGGCATAGGCGGAGTCACCTAGTGCAG,12400 fluorescence intensity (a.u.)
8,GATACATCACATTTCTTTCTTCAAAACACACACACACACACGGAGTCACCTAGTGCAG,8300 fluorescence intensity (a.u.)
9,GACATGGCACGTTGACTTGGTCCAGCTGTGCTGACGTGGCCGGAGTCACCTAGTGCAG,10000 fluorescence intensity (a.u.)
10,AATCTACTTGTTAAGTTCATTTCTTTAATATTTATTTGTTCGGAGTCACCTAGTGCAG,9180 fluorescence intensity (a.u.)
11,TTTTGCCCACAACTACATGCTCCTTTTTGTGTTCTTGTTTCGGAGTCACCTAGTGCAG,10000 fluorescence intensity (a.u.)
12,GCGTGGATCTCGGGGCGCGGGGCTAGGGTTTAGTATGGCTCGGAGTCACCTAGTGCAG,12800 fluorescence intensity (a.u.)
13,GGCGGGAGGCGCGGGCGGCGAGGTGCTCCTCTTCTCTCTCCGGAGTCACCTAGTGCAG,9060 fluorescence intensity (a.u.)
14,TTGCTTGTGTTGATGTGTGTAATTAACAGATACTTGTAATCGGAGTCACCTAGTGCAG,8470 fluorescence intensity (a.u.)
15,GCCGCACAACCCACCACCACCACCACCACCGATCTGCGGACGGAGTCACCTAGTGCAG,9940 fluorescence intensity (a.u.)
16,TACCCGATCTTACATAACATTGACATGGTATGTCATACACCGGAGTCACCTAGTGCAG,8940 fluorescence intensity (a.u.)
17,TCTGGTCCCATCTGTCATACACACATTACGTCTTGTAGTCCGGAGTCACCTAGTGCAG,10300 fluorescence intensity (a.u.)
18,CGTTATTATGTGGTTGTTGATGCTTATTCTACGTTAAGCACGGAGTCACCTAGTGCAG,10300 fluorescence intensity (a.u.)
19,GATATATTATACTCTAGTTTGATGCCCATCTGTTCCTATACGGAGTCACCTAGTGCAG,8050 fluorescence intensity (a.u.)
20,GACTTGTTATCGTATAATTAATTAAGTACTATCGTATAATCGGAGTCACCTAGTGCAG,8050 fluorescence intensity (a.u.)
21,TGTAGAGAACCCACATGTTTCTGGTAGAATCTTCTCCCTGCGGAGTCACCTAGTGCAG,8050 fluorescence intensity (a.u.)

row,Sequence,binding signal
1,ATCAGGTTTGCCGCGAGTTGTACTTCCTTGCACGCCACCACGGAGTCACCTAGTGCAG,8340 fluorescence intensity (a.u.)
2,CTTGGTTGGTTGGTTGATCGATCCGGTGCCCGGATTTGGGCGGAGTCACCTAGTGCAG,8620 fluorescence intensity (a.u.)
3,TCTCGCCTTTTATTTCTTCTTCTTCTTCCCTTCTCCGTCGCGGAGTCACCTAGTGCAG,8290 fluorescence intensity (a.u.)
4,GAGATGTTGGTTTTGTGGGTTGAGGGATGATTTTATAACTCGGAGTCACCTAGTGCAG,13700 fluorescence intensity (a.u.)
5,CCCACGTTCTTTTCCCAATTTCAAACGCCGTTTTTTTTTCCGGAGTCACCTAGTGCAG,8070 fluorescence intensity (a.u.)
6,GCTCATGTATATATGCTACATATGTCACTATATATATTTACGGAGTCACCTAGTGCAG,8640 fluorescence intensity (a.u.)
7,GATCGCGGACCGCGTGGGCTTTTTGCCTTCCTGGGCTTTCCGGAGTCACCTAGTGCAG,8260 fluorescence intensity (a.u.)
8,TAACTTTCCTTGCATTCCTTCTGCTTGCCAAGTACATTGTCGGAGTCACCTAGTGCAG,13900 fluorescence intensity (a.u.)
9,TCAAGCCTAAATTGGGTGTCCCCACAGTCGTCCAGTCCGACGGAGTCACCTAGTGCAG,8880 fluorescence intensity (a.u.)
10,AAATTTAAAGCGGTTTGACTTTGACCATAATCAAAAAGACCGGAGTCACCTAGTGCAG,8630 fluorescence intensity (a.u.)
11,CAGCTTCATCTCCAGCCAACACTAGTATCCCATCCATTCTCGGAGTCACCTAGTGCAG,8860 fluorescence intensity (a.u.)
12,GCTCGCGGCGGCGCTCCTCTACCGCGCGCCCTTTTCCAAGCGGAGTCACCTAGTGCAG,8850 fluorescence intensity (a.u.)
13,CGCCGCCTCCTCTCTCCGTCTCGCTTCGGTTCCTTCCTCGCGGAGTCACCTAGTGCAG,13100 fluorescence intensity (a.u.)
14,CTGTGAATTGTATTTCACTTCCATTCCTGCTTCCGCCCTTCGGAGTCACCTAGTGCAG,9160 fluorescence intensity (a.u.)
15,CTACACACATAAACTTTCAACTTTTCTGTCACATCGTTCTCGGAGTCACCTAGTGCAG,8960 fluorescence intensity (a.u.)
16,ACATATCCTAAGGAACTCTAGTTCCGCGTCTAATTTATCTCGGAGTCACCTAGTGCAG,8670 fluorescence intensity (a.u.)
17,TCTGTGTTTTGCAATTATCTGTTTTACACTTATATTCCTACGGAGTCACCTAGTGCAG,11100 fluorescence intensity (a.u.)
18,ATCTGTGCAAGAAGGAACGAAGAGCACGGCATGATGAAGTCGGAGTCACCTAGTGCAG,8320 fluorescence intensity (a.u.)
19,ACTCCACCATCGCTCGCGACCCGCGCCCACGCCCGCGCACCGGAGTCACCTAGTGCAG,10000 fluorescence intensity (a.u.)
20,CTGGTTGCCTCTGCTCTGCTCTCCCTCCATTTCGAATTTCCGGAGTCACCTAGTGCAG,10100 fluorescence intensity (a.u.)
21,GGTTCGTCCTCACCATCTCGCGAAACCATTGCTTACCATGCGGAGTCACCTAGTGCAG,9970 fluorescence intensity (a.u.)

row,Sequence,binding signal
1,CCACCGCCGGCCACACACCTCCTGCCACGCCGCGCGCTCGCGGAGTCACCTAGTGCAG,10900 fluorescence intensity (a.u.)
2,GCCACGTTCACATCTCCGACGCCTCCGTGTCCATTGCAGTCGGAGTCACCTAGTGCAG,9160 fluorescence intensity (a.u.)
3,TCGAATGTACTTTGAGATTCATACGGGGAGGGAAAAAAATCGGAGTCACCTAGTGCAG,8990 fluorescence intensity (a.u.)
4,GCCTCGCCTGCAACCTGCTTGTCTAGCACTCTTTGTGGAACGGAGTCACCTAGTGCAG,10500 fluorescence intensity (a.u.)
5,CGAGAAGGGGATGGGGAGGAGGAGAGGGAGCGGGAGAGGGCGGAGTCACCTAGTGCAG,10100 fluorescence intensity (a.u.)
6,CCCGTCACTGTCACTCGCCACACTATAAATAGCACCCAAACGGAGTCACCTAGTGCAG,9330 fluorescence intensity (a.u.)
7,ATCTTGGGAAGGCCGTTACTCACTCTAGACTTTACTCCTCCGGAGTCACCTAGTGCAG,8270 fluorescence intensity (a.u.)
8,ACTGCACTCCAAAACCTACCTCTTACTCTGCTAGTCAGTGCGGAGTCACCTAGTGCAG,9900 fluorescence intensity (a.u.)
9,AGTTTATTTTATATGGAGGGGTTTAATATATCAAATTTCACGGAGTCACCTAGTGCAG,11200 fluorescence intensity (a.u.)
10,GAGCATCTCTCTCTGGTCTCCGCTCGCCGCGGCTTCACGTCGGAGTCACCTAGTGCAG,9020 fluorescence intensity (a.u.)
11,GACTGCCAAACAATTCCCCTTCAGCTCACTGCCATCCTCCCGGAGTCACCTAGTGCAG,8480 fluorescence intensity (a.u.)
12,GAAAATGCTACACTTGTCCCGCTTCTCTAATTGTCAAATCCGGAGTCACCTAGTGCAG,8360 fluorescence intensity (a.u.)
13,TCCTACACTGTCGCTTAGGCACACTGTCTCCCTGACTGATCGGAGTCACCTAGTGCAG,8920 fluorescence intensity (a.u.)
14,TCCTACTCCGGGTCATCTACGCCACCTCCCACATGCACACCGGAGTCACCTAGTGCAG,10700 fluorescence intensity (a.u.)
15,AACTTAGCCAATTGCGCCGTGCTTTGACTACGCCCCGGAACGGAGTCACCTAGTGCAG,8080 fluorescence intensity (a.u.)
16,GATAAACTTTTGGATACTCATGACACGCTTTTCAAACTGCCGGAGTCACCTAGTGCAG,9040 fluorescence intensity (a.u.)
17,TGATCGAGAGAGGTGTTGTTGGAAGCTTGGTTGGTTGGGGCGGAGTCACCTAGTGCAG,9000 fluorescence intensity (a.u.)
18,TGTCGCCATCTCCCGATCCACCACCACGGGCGCACGCGCGCGGAGTCACCTAGTGCAG,8460 fluorescence intensity (a.u.)
19,GCGCGCGCCACCGCACCCGCGACGCCGACGTGTTCATGACCGGAGTCACCTAGTGCAG,8820 fluorescence intensity (a.u.)
20,CACTGCTTCTCTCTCTCTCCAACACAGCACCTAGTACCGCCGGAGTCACCTAGTGCAG,8540 fluorescence intensity (a.u.)
21,ACGCTTAACCTTAGAATTCTTTAGAGATCGGCTTCCGAAACGGAGTCACCTAGTGCAG,8030 fluorescence intensity (a.u.)

# An excerpt of the results above:
row,Sequence,binding signal
12,GAAAATGCTACACTTGTCCCGCTTCTCTAATTGTCAAATCCGGAGTCACCTAGTGCAG,8360 fluorescence intensity (a.u.)
13,TCCTACACTGTCGCTTAGGCACACTGTCTCCCTGACTGATCGGAGTCACCTAGTGCAG,8920 fluorescence intensity (a.u.)
14,TCCTACTCCGGGTCATCTACGCCACCTCCCACATGCACACCGGAGTCACCTAGTGCAG,10700 fluorescence intensity (a.u.)
15,AACTTAGCCAATTGCGCCGTGCTTTGACTACGCCCCGGAACGGAGTCACCTAGTGCAG,8080 fluorescence intensity (a.u.)
